Reference: the supplement of paper PMC10849652
This is one part of the list.

Chains of the proteins cited; added tags and fusions are not shown. Lines headed by an entry give the natural chain unless they say otherwise; changes in a name come on top.
UniProt P52566: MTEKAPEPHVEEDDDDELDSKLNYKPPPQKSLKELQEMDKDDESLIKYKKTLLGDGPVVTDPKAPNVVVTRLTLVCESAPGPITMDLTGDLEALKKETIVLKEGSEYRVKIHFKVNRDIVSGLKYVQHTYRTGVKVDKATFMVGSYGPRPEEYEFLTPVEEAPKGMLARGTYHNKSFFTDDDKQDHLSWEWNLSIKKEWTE
UniProt Q14155: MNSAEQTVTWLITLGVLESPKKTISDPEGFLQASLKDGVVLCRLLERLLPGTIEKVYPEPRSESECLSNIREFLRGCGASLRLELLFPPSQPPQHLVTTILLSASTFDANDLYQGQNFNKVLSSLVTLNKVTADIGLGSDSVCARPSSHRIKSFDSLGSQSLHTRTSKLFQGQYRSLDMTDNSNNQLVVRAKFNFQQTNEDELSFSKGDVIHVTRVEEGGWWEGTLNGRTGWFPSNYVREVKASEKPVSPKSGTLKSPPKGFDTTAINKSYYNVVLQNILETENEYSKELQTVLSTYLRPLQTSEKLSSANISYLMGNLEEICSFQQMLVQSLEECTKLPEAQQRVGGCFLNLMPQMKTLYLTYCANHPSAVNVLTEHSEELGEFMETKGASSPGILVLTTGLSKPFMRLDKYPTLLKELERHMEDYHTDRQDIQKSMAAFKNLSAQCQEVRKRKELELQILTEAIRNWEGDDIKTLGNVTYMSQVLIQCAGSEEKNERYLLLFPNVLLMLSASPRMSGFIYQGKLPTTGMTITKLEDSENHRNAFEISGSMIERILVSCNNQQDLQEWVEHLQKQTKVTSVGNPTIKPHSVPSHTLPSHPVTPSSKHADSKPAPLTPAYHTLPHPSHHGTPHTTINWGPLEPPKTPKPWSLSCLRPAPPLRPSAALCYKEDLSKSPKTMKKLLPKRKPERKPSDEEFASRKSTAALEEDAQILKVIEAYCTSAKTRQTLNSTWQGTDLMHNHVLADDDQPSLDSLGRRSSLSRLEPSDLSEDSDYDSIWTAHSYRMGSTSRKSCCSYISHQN
UniProt Q9Y5C1: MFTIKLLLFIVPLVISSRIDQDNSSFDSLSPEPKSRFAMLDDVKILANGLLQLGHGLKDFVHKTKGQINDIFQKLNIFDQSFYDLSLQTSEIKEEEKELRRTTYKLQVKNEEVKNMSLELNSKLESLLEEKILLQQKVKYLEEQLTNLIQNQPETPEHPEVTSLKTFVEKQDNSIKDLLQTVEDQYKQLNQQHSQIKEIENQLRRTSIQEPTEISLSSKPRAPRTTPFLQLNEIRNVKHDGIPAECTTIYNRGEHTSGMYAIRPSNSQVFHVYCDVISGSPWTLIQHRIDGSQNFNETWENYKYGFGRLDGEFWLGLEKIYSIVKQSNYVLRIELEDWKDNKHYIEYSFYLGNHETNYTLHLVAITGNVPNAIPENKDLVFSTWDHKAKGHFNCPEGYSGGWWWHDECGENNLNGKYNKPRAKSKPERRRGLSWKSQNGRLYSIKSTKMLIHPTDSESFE
UniProt P50995, whole entry, looked up: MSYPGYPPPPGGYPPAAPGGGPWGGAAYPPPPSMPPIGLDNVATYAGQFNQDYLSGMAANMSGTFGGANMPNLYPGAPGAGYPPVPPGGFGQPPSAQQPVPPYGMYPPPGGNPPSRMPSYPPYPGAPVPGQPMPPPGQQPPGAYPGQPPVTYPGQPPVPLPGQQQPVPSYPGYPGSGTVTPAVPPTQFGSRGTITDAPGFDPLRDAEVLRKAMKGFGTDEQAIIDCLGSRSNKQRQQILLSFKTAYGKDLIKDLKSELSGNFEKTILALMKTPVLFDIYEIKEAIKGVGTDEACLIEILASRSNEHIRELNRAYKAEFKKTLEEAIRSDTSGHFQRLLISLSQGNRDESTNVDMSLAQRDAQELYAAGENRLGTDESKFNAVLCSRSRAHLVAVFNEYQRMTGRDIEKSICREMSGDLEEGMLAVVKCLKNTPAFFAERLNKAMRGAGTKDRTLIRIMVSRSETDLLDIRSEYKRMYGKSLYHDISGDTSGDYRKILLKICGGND
UniProt P12429: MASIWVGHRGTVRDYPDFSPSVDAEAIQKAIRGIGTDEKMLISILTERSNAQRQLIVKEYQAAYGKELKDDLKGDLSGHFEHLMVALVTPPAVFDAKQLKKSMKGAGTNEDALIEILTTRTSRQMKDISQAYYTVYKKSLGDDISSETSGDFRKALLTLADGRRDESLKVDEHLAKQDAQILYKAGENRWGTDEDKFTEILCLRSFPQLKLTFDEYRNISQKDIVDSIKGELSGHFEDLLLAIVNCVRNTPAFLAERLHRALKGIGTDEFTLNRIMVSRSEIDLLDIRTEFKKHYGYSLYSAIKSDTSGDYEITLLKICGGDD
UniProt O75179: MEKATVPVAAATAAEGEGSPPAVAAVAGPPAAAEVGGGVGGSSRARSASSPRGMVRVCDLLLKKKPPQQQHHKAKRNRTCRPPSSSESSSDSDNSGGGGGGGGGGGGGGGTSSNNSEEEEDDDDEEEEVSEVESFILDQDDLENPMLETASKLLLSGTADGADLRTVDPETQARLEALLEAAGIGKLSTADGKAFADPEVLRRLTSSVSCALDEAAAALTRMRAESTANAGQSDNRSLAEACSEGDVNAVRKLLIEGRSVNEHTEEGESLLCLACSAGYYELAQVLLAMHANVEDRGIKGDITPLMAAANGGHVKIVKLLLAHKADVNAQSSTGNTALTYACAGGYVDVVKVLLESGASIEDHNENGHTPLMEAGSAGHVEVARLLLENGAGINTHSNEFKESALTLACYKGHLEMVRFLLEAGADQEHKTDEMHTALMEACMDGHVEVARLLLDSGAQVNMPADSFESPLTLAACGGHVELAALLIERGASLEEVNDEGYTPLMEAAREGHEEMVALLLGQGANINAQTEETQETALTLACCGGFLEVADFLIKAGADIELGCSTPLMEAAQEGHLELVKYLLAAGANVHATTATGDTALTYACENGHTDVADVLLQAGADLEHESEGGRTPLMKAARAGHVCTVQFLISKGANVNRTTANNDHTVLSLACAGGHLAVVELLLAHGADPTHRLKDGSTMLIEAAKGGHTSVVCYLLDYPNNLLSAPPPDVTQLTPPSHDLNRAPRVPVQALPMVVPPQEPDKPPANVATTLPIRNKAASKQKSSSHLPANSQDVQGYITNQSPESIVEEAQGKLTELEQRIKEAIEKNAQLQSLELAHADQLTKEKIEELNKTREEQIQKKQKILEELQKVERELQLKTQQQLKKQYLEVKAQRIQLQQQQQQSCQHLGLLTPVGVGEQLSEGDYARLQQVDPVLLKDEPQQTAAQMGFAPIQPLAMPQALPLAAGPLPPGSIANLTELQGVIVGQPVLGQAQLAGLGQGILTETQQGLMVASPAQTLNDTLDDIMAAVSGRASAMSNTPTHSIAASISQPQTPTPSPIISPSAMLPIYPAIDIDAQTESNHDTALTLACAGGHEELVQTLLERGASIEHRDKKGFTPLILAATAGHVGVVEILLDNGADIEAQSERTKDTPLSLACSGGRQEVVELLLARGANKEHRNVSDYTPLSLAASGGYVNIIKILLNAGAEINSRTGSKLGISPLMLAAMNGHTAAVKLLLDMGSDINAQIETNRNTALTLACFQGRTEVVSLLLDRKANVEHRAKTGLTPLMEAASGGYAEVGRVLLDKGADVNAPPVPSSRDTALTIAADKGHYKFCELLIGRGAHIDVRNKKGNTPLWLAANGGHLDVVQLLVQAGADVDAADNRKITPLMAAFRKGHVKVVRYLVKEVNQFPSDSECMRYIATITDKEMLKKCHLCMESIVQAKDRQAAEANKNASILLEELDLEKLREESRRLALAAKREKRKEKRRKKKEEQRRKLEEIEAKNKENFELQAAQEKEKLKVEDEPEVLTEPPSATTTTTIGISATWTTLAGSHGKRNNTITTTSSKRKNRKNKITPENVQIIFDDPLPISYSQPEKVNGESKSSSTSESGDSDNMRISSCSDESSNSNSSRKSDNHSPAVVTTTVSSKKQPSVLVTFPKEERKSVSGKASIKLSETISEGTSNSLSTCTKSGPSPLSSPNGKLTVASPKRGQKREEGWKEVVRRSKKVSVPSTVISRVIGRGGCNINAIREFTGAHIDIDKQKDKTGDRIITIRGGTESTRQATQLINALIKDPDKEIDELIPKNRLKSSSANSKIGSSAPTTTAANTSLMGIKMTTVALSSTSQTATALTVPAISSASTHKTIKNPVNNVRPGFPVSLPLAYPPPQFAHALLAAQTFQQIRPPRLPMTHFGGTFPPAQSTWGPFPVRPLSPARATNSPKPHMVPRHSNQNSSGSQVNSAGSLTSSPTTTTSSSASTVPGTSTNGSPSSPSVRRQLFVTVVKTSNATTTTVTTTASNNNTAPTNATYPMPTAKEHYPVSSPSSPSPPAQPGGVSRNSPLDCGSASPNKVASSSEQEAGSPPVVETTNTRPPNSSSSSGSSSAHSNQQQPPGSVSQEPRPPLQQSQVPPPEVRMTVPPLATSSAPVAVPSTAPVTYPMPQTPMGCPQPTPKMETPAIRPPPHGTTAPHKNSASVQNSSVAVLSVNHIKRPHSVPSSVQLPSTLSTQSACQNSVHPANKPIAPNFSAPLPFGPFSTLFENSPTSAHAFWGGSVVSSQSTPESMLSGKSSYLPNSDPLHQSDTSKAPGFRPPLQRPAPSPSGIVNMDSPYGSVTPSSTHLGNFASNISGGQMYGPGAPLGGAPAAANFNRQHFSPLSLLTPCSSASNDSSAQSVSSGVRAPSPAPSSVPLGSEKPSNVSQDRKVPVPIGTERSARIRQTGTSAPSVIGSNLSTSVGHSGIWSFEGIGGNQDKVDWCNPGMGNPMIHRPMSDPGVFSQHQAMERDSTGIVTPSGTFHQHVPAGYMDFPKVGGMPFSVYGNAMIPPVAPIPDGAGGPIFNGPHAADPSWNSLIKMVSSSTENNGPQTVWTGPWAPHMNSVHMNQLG
UniProt P20073: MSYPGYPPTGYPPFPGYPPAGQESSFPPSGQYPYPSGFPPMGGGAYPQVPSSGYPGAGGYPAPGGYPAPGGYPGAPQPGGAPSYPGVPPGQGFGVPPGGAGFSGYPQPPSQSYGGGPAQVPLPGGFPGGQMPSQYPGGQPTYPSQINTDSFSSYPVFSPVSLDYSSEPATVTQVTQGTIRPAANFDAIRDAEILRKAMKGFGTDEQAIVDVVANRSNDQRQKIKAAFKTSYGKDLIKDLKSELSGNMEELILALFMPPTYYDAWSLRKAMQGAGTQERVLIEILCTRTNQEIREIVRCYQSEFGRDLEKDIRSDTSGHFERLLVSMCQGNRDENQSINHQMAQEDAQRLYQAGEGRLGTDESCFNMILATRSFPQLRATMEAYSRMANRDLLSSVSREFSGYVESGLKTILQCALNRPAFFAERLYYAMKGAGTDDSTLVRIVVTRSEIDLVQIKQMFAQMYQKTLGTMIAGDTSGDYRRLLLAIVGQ
UniProt P02649, whole entry, looked up: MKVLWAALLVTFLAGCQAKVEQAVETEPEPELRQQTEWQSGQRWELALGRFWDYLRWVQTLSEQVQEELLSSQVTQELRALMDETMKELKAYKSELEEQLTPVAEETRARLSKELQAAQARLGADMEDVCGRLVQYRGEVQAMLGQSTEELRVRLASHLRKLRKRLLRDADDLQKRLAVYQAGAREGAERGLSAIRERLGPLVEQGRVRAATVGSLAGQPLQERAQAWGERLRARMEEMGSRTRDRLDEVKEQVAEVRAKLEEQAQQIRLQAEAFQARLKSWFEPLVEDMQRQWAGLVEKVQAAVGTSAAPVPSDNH
UniProt Q8N6H7: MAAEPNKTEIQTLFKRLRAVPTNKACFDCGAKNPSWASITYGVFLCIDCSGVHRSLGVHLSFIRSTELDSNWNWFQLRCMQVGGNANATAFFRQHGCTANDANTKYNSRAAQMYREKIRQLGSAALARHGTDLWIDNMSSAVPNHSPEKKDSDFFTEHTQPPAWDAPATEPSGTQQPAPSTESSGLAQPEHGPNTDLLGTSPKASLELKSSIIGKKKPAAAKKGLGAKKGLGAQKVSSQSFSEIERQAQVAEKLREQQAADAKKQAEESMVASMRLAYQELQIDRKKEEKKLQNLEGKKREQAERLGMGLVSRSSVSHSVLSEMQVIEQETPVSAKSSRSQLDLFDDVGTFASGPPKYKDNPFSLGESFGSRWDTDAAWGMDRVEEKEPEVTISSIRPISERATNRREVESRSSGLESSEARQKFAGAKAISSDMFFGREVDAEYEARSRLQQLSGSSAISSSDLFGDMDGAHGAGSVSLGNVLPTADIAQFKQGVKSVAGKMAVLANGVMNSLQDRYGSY
UniProt Q96BI3, whole entry, looked up: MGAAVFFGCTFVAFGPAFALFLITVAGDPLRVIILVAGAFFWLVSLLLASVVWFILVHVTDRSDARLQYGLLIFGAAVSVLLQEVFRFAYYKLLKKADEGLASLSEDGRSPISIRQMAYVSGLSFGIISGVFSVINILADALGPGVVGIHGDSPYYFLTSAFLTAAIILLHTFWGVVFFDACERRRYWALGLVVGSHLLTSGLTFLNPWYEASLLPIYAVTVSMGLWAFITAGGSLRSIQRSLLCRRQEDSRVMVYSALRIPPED

Assays:
Experiment in all cases: log2 fold change, soluble protein after heating vs DMSO (PISA); higher = thermal stabilisation; K562 cells, 10 uM, 30 min; active = over 0.2 and 3.5 SD of the protein, either way, in both replicates (recomputed)
[1] = compound: CS(=O)(=O)c1ccc(-c2cnc(N)c(C(=O)Nc3ccccc3)n2)cc1
Procedure, shortened: (§1)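 Soluble protein was defined as the supernatant after 21,000xg for 90 min. It came from K562 cells at 2×10^6 cells/mL given 10 μM compound for 30 min, heated in aliquots for 3 min across 48°C-58°C, pooled, and extracted in PBS with 0.5% NP-40 at 4°C, and was quantified by TMTpro 16plex LC-MS/MS with equalised channel sums. Thermal stability against control samples, from duplicates, is reported as log2 fold change.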

crizotinib = compound: C[C@@H](Oc1cc(-c2cnn(C3CCNCC3)c2)cnc1N)c1c(Cl)ccc(F)c1Cl [crizotinib]
Procedure, shortened: as §1

[2] = compound: C[C@@H]1COCCN1C2=NC(=NC(=C2)C3(CC3)S(=O)(=O)C)C4=C5C=CNC5=CC=C4
Procedure, shortened: as §1

[3] = compound: C[C@H](C1=CC=C(C=C1)C(=O)NC2=C3C=CNC3=NC=C2)N
Procedure, shortened: as §1

duvelisib = compound: C[C@H](Nc1ncnc2nc[nH]c12)c1cc2cccc(Cl)c2c(=O)n1-c1ccccc1 [duvelisib]
Procedure, shortened: as §1

gandotinib = compound: Cc1cc(Nc2cc(CN3CCOCC3)c3nc(C)c(Cc4ccc(Cl)cc4F)n3n2)n[nH]1 [gandotinib]
Procedure, shortened: as §1

tozasertib = compound: Cc1cc(Nc2cc(N3CCN(C)CC3)nc(Sc3ccc(NC(=O)C4CC4)cc3)n2)n[nH]1 [tozasertib]
Procedure, shortened: as §1

[4] = compound: Cc1cc(SCc2sc(-c3ccc(C(F)(F)F)cc3)nc2C)ccc1OCC(=O)O
Procedure, shortened: as §1

doramapimod = compound: Cc1ccc(-n2nc(C(C)(C)C)cc2NC(=O)Nc2ccc(OCCN3CCOCC3)c3ccccc23)cc1 [doramapimod]
Procedure, shortened: as §1

ispinesib = compound: Cc1ccc(C(=O)N(CCCN)[C@@H](c2nc3cc(Cl)ccc3c(=O)n2Cc2ccccc2)C(C)C)cc1 [ispinesib]
Procedure, shortened: as §1

bafetinib = compound: Cc1ccc(NC(=O)c2ccc(CN3CC[C@H](N(C)C)C3)c(C(F)(F)F)c2)cc1Nc1nccc(-c2cncnc2)n1 [bafetinib]
Procedure, shortened: as §1

[5] = compound: Cc1cccc(CC(=O)N2CCc3c2ccc(-c2cn(C)c4ncnc(N)c24)c3F)n1
Procedure, shortened: as §1

nilotinib = compound: Cc1cn(-c2cc(NC(=O)c3ccc(C)c(Nc4nccc(-c5cccnc5)n4)c3)cc(C(F)(F)F)c2)cn1 [nilotinib]
Procedure, shortened: as §1

[6] = compound: Cc1nc(Nc2n[nH]c3c2CN(C(=O)N[C@H](CN(C)C)c2ccccc2)C3(C)C)c2sccc2n1
Procedure, shortened: as §1

dasatinib = compound: Cc1nc(Nc2ncc(C(=O)Nc3c(C)cccc3Cl)s2)cc(N2CCN(CCO)CC2)n1 [dasatinib]
Procedure, shortened: as §1

[7] = compound: Cc1ncc(-c2ccnc(Nc3ccc(S(C)(=O)=O)cc3)n2)n1C(C)C
Procedure, shortened: as §1

[8] = compound: Cn1cc(-c2ccc3c(c2)CCN3C(=O)Cc2cccc(C(F)(F)F)c2)c2c(N)ncnc21
Procedure, shortened: as §1

[9] = compound: Cn1cc(-c2ccc3nnc(C(F)(F)c4ccc5ncccc5c4)n3n2)cn1
Procedure, shortened: as §1

tipifarnib = compound: Cn1cncc1[C@@](N)(c1ccc(Cl)cc1)c1ccc2c(c1)c(-c1cccc(Cl)c1)cc(=O)n2C [tipifarnib]
Procedure, shortened: as §1

mubritinib = compound: FC(F)(F)c1ccc(/C=C/c2nc(COc3ccc(CCCCn4ccnn4)cc3)co2)cc1 [mubritinib]
Procedure, shortened: as §1

Measured: log2 fold change

AP3B1 (UniProt O00203)
inactive: [1] 0.038 | crizotinib -0.071 | [2] -0.007 | [3] 0.051 | duvelisib 0.008 | gandotinib -0.059 | tozasertib -0.002 | [4] 0.075 | doramapimod -0.015 | ispinesib 0 | bafetinib 0.007 | [5] 0.054 | nilotinib -0.045 | [6] -0.029 | dasatinib -0.095 | [7] 0.015 | [8] 0.005 | [9] -0.019 | tipifarnib -0.064 | mubritinib 0.06

ARHGDIB (UniProt P52566)
inactive: [1] 0.004 | crizotinib 0.06 | [2] 0.091 | [3] -0.037 | duvelisib 0.066 | gandotinib 0.019 | tozasertib -0.105 | [4] -0.012 | doramapimod -0.029 | ispinesib 0.016 | bafetinib -0.035 | [5] -0.026 | nilotinib -0.023 | [6] -0.032 | dasatinib -0.001 | [7] -0.002 | [8] 0.043 | [9] 0.009 | tipifarnib 0 | mubritinib 0.078

ARCN1 (UniProt P48444)
inactive: [1] -0.005 | crizotinib 0.054 | [2] 0.038 | [3] -0.014 | duvelisib 0.029 | gandotinib -0.09 | tozasertib 0.026 | [4] 0.006 | doramapimod -0.044 | ispinesib 0.086 | bafetinib -0.003 | [5] 0.023 | nilotinib -0.037 | [6] -0.025 | dasatinib -0.042 | [7] -0.01 | [8] -0.007 | [9] 0.005 | tipifarnib -0.001 | mubritinib 0.023

ANK3 (UniProt Q12955)
inactive: [1] 0.031 | crizotinib -0.198 | [2] -0.01 | [3] 0.245 | duvelisib 0.009 | gandotinib -0.081 | tozasertib 0.066 | [4] 0.035 | doramapimod 0.298 | ispinesib 0.046 | bafetinib -0.244 | [5] -0.242 | nilotinib -0.092 | [6] 0.042 | dasatinib -0.018 | [7] -0.033 | [8] -0.011 | [9] 0.038 | tipifarnib 0.044 | mubritinib 0.041

ARHGEF7 isoform 5 (UniProt Q14155)
inactive: [1] -0.028 | crizotinib -0.177 | [2] -0.047 | [3] 0.005 | duvelisib -0.038 | gandotinib -0.044 | tozasertib 0.038 | [4] 0.166 | doramapimod -0.005 | ispinesib -0.063 | bafetinib 0.131 | [5] 0.087 | nilotinib -0.015 | [6] -0.153 | dasatinib -0.194 | [7] -0.037 | [8] 0.048 | [9] -0.045 | tipifarnib -0.029 | mubritinib -0.039

ANAPC5 (UniProt Q9UJX4)
inactive: [1] -0.017 | crizotinib 0.006 | [2] -0.037 | [3] 0.095 | duvelisib -0.018 | gandotinib -0.038 | tozasertib 0.059 | [4] 0.016 | doramapimod 0.058 | ispinesib -0.01 | bafetinib 0.058 | [5] 0.028 | nilotinib -0.022 | [6] 0.005 | dasatinib 0.002 | [7] -0.046 | [8] -0.029 | [9] -0.068 | tipifarnib 0.025 | mubritinib -0.011

APRT (UniProt P07741)
inactive: [1] 0.015 | crizotinib 0.083 | [2] 0.103 | [3] -0.043 | duvelisib 0.063 | gandotinib 0.022 | tozasertib -0.008 | [4] -0.012 | doramapimod -0.007 | ispinesib -0.017 | bafetinib -0.045 | [5] -0.061 | nilotinib -0.019 | [6] 0.01 | dasatinib 0.051 | [7] -0.017 | [8] 0.027 | [9] 0.042 | tipifarnib -0.011 | mubritinib 0.009

2 records picked at random from those above:
AP3B1 (UniProt O00203)
inactive: [1] 0.038 | crizotinib -0.071 | [2] -0.007 | [3] 0.051 | duvelisib 0.008 | gandotinib -0.059 | tozasertib -0.002 | [4] 0.075 | doramapimod -0.015 | ispinesib 0 | bafetinib 0.007 | [5] 0.054 | nilotinib -0.045 | [6] -0.029 | dasatinib -0.095 | [7] 0.015 | [8] 0.005 | [9] -0.019 | tipifarnib -0.064 | mubritinib 0.06

ARCN1 (UniProt P48444)
inactive: [1] -0.005 | crizotinib 0.054 | [2] 0.038 | [3] -0.014 | duvelisib 0.029 | gandotinib -0.09 | tozasertib 0.026 | [4] 0.006 | doramapimod -0.044 | ispinesib 0.086 | bafetinib -0.003 | [5] 0.023 | nilotinib -0.037 | [6] -0.025 | dasatinib -0.042 | [7] -0.01 | [8] -0.007 | [9] 0.005 | tipifarnib -0.001 | mubritinib 0.023

More entries:

ANGPTL3 (UniProt Q9Y5C1)
inactive: [1] 0.051 | crizotinib 0.201 | [2] 0.029 | [3] 0.099 | duvelisib 0.038 | tozasertib -0.176 | [4] -0.076 | doramapimod 0.048 | ispinesib 0.187 | bafetinib -0.195 | dasatinib -0.065 | [8] 0.288 | [9] 0.057 | tipifarnib 0.168 | mubritinib -0.062

AP1B1 (UniProt Q10567)
inactive: [1] 0.022 | crizotinib 0.011 | [2] 0.051 | [3] -0.041 | duvelisib 0.003 | gandotinib -0.057 | tozasertib 0.025 | [4] 0.019 | doramapimod -0.021 | ispinesib 0.006 | bafetinib 0.004 | [5] 0.004 | nilotinib -0.024 | [6] -0.015 | dasatinib -0.015 | [7] -0.006 | [8] -0.005 | [9] 0.01 | tipifarnib 0 | mubritinib 0.011

ANXA11 (UniProt P50995)
inactive: [1] 0.005 | crizotinib 0.012 | [2] 0.091 | [3] -0.064 | duvelisib 0.019 | gandotinib -0.004 | tozasertib 0.007 | [4] 0.059 | doramapimod -0.061 | ispinesib 0.009 | bafetinib -0.023 | [5] 0.026 | nilotinib -0.031 | [6] 0.007 | dasatinib -0.098 | [7] 0.039 | [8] 0.069 | [9] 0.034 | tipifarnib -0.1 | mubritinib 0.094

ANXA3 (UniProt P12429)
inactive: [1] -0.035 | crizotinib -0.026 | [2] 0.084 | [3] -0.041 | duvelisib 0.111 | gandotinib -0.055 | tozasertib -0.024 | [4] 0.044 | doramapimod 0.02 | ispinesib -0.006 | bafetinib -0.051 | [5] 0.027 | nilotinib -0.045 | [6] -0.018 | dasatinib -0.044 | [7] 0.02 | [8] 0.067 | [9] 0.023 | tipifarnib -0.011 | mubritinib 0.015

ANKRD17 (UniProt O75179)
inactive: [1] 0.053 | crizotinib 0.046 | [2] -0.052 | [3] 0.166 | duvelisib 0.021 | gandotinib -0.037 | tozasertib 0.062 | [4] -0.07 | doramapimod 0.139 | ispinesib -0.213 | bafetinib -0.056 | [5] 0.093 | nilotinib 0.015 | [6] -0.026 | dasatinib 0 | [7] -0.015 | [8] -0.036 | [9] -0.088 | tipifarnib 0.001 | mubritinib -0.045

ANXA7 (UniProt P20073)
inactive: [1] 0.004 | crizotinib 0.008 | [2] 0.075 | [3] -0.088 | duvelisib 0.038 | gandotinib -0.062 | tozasertib 0.022 | [4] 0.007 | doramapimod -0.085 | ispinesib 0.14 | bafetinib -0.022 | [5] 0.021 | nilotinib -0.028 | [6] 0 | dasatinib -0.052 | [7] -0.012 | [8] 0.041 | [9] -0.051 | tipifarnib -0.016 | mubritinib 0.009

APOE (UniProt P02649)
inactive: [1] 0.057 | crizotinib 0.063 | [2] 0.035 | [3] 0.017 | duvelisib -0.009 | gandotinib 0.029 | tozasertib 0.02 | [4] 0.047 | doramapimod -0.054 | ispinesib 0.026 | bafetinib 0.048 | [5] -0.019 | nilotinib 0.185 | [6] -0.014 | dasatinib 0.011 | [7] 0.026 | [8] 0.191 | [9] 0.062 | tipifarnib 0.049 | mubritinib -0.063

ARFGAP2 (UniProt Q8N6H7)
inactive: [1] -0.04 | crizotinib 0.042 | [2] 0.062 | [3] 0.007 | gandotinib -0.101 | [4] 0.066 | doramapimod -0.009 | ispinesib 0.039 | bafetinib -0.006 | [5] -0.008 | nilotinib -0.045 | [6] -0.063 | dasatinib -0.096 | [7] 0.035 | [8] -0.024 | [9] -0.024 | tipifarnib -0.059 | mubritinib 0.041

APH1A (UniProt Q96BI3)
inactive: [1] 0.048 | crizotinib -0.151 | [3] 0.021 | gandotinib -0.075 | [4] -0.036 | doramapimod 0.073 | bafetinib 0.132 | [5] -0.06 | nilotinib -0.037 | [6] -0.04 | dasatinib -0.039 | [7] 0.028 | [8] 0.036 | tipifarnib -0.06 | mubritinib 0.05
